# Columns and labels:
# CD4+ T cells = test: exogenous autologous normal donor restimulation assay, TNFα/IFNγ double positive CD4+ T cells by flow cytometry; type: cell-based, human; settings: donor independent, peptide pool 10 μg/mL, healthy donors
# Protocol: (§1) The immunogenicity of neoantigens was assessed using the exogenous autologous normal donor restimulation assay. […] The lyophilized peptides were solubilized in 100% DMSO.
# CD1c+ Dendritic Cells (CD1c+DC) isolated from human healthy PBMCs were thawed using media (IMDM (Gibco) supplemented with glutamine, HEPES, 5% human serum (Sigma), and 1× Pen-Strep). DC cells were resuspended in media supplemented with IL-4 (Peprotech, 20 ng/mL) and GM-CSF (Gibco, 20 ng/mL), plated in 6 well microplates, and rested overnight at 37° C. and 5% CO2 incubator. The following day, DC cells were counted and plated in a 96 well round bottom microplate at a concentration of 30,000 viable cells per well. Lyophilized neoantigen peptide pools (15-mer peptides with 8-mer overlapping peptide sequences) were solubilized in 100% DMSO with a stock concentration of 20 mg/mL Neoantigen peptides pools were added to DCs for a final concentration of 10 μg/mL and rested for 2 hours at 37° C. and 5% CO2 incubator. […]
# (§2) On Day 11, cells were re-stimulated with identical experimental peptide pools or controls, at same concentration as peptide stimulation on Day 1. […] Cells were washed and resuspended in stain buffer, analyzed, and recorded in a BD Celesta flow cytometer.
# (§3) Flow cytometry analysis was conducted on FlowJo v10.6 software. […] The CD8+ and CD4+ T cells were analyzed for TNFα and IFNγ expression. […]
# CD8+ T cells = test: exogenous autologous normal donor restimulation assay, TNFα/IFNγ double positive CD8+ T cells by flow cytometry; type: cell-based, human
# Protocol: as §1
# CD1c+ Dendritic Cells (CD1c+DC) isolated from human healthy PBMCs were thawed using media (IMDM (Gibco) supplemented with glutamine, HEPES, 5% human serum (Sigma), and 1× Pen-Strep). DC cells were resuspended in media supplemented with IL-4 (Peprotech, 20 ng/mL) and GM-CSF (Gibco, 20 ng/mL), plated in 6 well microplates, and rested overnight at 37° C. and 5% CO2 incubator. The following day, DC cells were counted and plated in a 96 well round bottom microplate at a concentration of 30,000 viable cells per well. Lyophilized neoantigen peptide pools (15-mer peptides with 8-mer overlapping peptide sequences) were solubilized in 100% DMSO with a stock concentration of 20 mg/mL Neoantigen peptides pools were added to DCs for a final concentration of 10 μg/mL and rested for 2 hours at 37° C. and 5% CO2 incubator. CEF Peptide Pool “Plus” (Cellular Technologies, Ltd.) was utilized as a positive control (each viral peptide at a final concentration of 4 ug/ml) and DMSO at the same final concentration (0.05%) as the experimental peptides was utilized as a negative control. After 2 hours, DC cells were irradiated with 50 gray of ionizing radiation. Autologous CD3+ Pan-T cells isolated from human normal PBMCs were thawed using media. Following irradiation, autologous Pan-T cells were added to the irradiated DCs at 300,000 viable cells per well. Human IL-15 (Peprotech) was added to all wells at final concentration of 10 ng/ml. Plates were incubated at 37° C. and 5% CO2 incubator for a total of 12 days. […]
# as §2, §3
molecule,measurement,setting,value
"KQYQLTVQMESHSLPQAGVQWHDFVSPQPLPPGFKRFSCLSFLSSWDYRLQPPHLANFFVFLVETGFHHVGQAGLKLLTSDDLPASASQSAGITGVSHHARPNFFFSLLLS (neoantigen, alternative splicing of SPATA17) KQYQLTVQMESHSLPQAGVQWHDFVSPQPLPPGFKRFSCLSFLSSWDYRLQPPHLANFFVFLVETGFHHVGQAGLKLLTSDDLPASASQSAGITGVSHHARPNFFFSLLLS",Fold change (CD4+) vs. DMSO,CD4+ T cells; maximum CD4+ T-cell response (TNFα and IFNγ),89.66 fold
same,Frequency (TNFα + IFNγ + CD4 T cells),CD4+ T cells; maximum CD4+ T-cell response,0.14%
same,Fold change (CD8+) vs. DMSO,"CD8+ T cells; maximum CD8+ T-cell response (TNFα and IFNγ), donor independent, peptide pool 10 μg/mL, healthy donors",162.59 fold
same,Frequency (TNFα + IFNγ + CD8 T cells),"CD8+ T cells; maximum CD8+ T-cell response, donor independent, peptide pool 10 μg/mL, healthy donors",8.78%
same,Immunogenic (yes/no),CD8+ T cells; positive if CD8+ and/or CD4+ double positive TNFα/IFNγ frequency >=3-fold over DMSO and at least 0.01%,Yes
